Laboratory results taken from patent publication US7625936B2, “Mitotic kinesin inhibitors” (Merck & Co. Inc., priority 2005, dated 2009).
Some results were stated once for a whole list of compounds, not compound by compound.

Target: T1, human KSP motor domain (KSP(367H)) (Homo sapiens, UniProt P52732)
T1 construct: were used to amplify the motor domain and the neck linker region; made in house; host or cells: E. coli BL21 (DE3), vector pRSETa
T1 sequence (P52732 1-367): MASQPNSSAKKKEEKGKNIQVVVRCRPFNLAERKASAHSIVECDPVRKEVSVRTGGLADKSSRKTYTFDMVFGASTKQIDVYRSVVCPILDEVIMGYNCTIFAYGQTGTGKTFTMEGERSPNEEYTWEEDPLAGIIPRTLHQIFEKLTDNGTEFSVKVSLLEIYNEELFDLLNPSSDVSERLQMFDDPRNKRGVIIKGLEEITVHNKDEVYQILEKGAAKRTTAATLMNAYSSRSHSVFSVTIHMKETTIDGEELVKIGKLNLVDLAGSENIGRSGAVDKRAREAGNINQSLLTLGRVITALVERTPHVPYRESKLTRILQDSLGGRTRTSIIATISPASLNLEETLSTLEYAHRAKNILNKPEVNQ
Experiment: Kinesin ATPase in vitro assay
Assay type: biochemical
Conditions: kinesin motor domain incubated with microtubules, 1 mM ATP and compound at 23° C.; free phosphate by quinaldine red/ammonium molybdate, absorbance 540 nm
Text: I. Kinesin ATPase In Vitro Assay
Cloning and Expression of Human Poly-Histidine Tagged KSP Motor Domain (KSP(367H))
Plasmids for the expression of the human KSP motor domain construct were cloned by PCR using a pBluescript full length human KSP construct (Blangy et al., Cell, vol. 83, pp 1159-1169, 1995) as a template. The N-terminal primer 5′-[…] (SEQ.ID.NO.: 1) and the C-terminal primer 5′-[…] […] (SEQ.ID.NO.: 2)were used to amplify the motor domain and the neck linker region. The PCR products were digested with AseI and XhoI, ligated into the NdeI/XhoI digestion product of pRSETa (Invitrogen) and transformed into E. coli BL21 (DE3).
Cells were grown at 37° C. to an OD600 of 0.5. […]
The kinesin motor domain is incubated with microtubules, 1 mM ATP (1:1 MgCl2: Na-ATP), and compound at 23° C. in buffer containing 80 mM K-HEPES (pH 7.0), 1 mM EGTA, 1 mM DTT, 1 mM MgCl2, and 50 mM KCl. […] Free phosphate from the ATP hydrolysis reaction is measured via a quinaldine red/ammonium molybdate assay by adding 150 μl of quench C buffer containing a 2:1 ratio of quench A:quench B. Quench A contains 0.1 mg/ml quinaldine red and 0.14% polyvinyl alcohol; quench B contains 12.3 mM ammonium molybdate tetrahydrate in 1.15 M sulfuric acid. The reaction is incubated for 10 minutes at 23° C., and the absorbance of the phospho-molybdate complex is measured at 540 nm.

CC(=O)N1N=C(c2cc(F)ccc2F)CC1(CCC[Si](C)(C)O)c1ccccc1 (stereo not shown) [Compound 2-2, {4-[1-acetyl-3-(2,5-difluorophenyl)-5-phenyl-4,5-dihydro-1H-pyrazol-5-yl]butyl}(dimethyl)silanol]
IC50: ≤ 50 µM
